This note sets out measurements from article PMC2432030.

Sequences of proteins named here, by UniProt entry; tags and fusion partners are left off. A change or cut given only in a name is not applied to a line headed by its entry.
UniProt Q8BTM8: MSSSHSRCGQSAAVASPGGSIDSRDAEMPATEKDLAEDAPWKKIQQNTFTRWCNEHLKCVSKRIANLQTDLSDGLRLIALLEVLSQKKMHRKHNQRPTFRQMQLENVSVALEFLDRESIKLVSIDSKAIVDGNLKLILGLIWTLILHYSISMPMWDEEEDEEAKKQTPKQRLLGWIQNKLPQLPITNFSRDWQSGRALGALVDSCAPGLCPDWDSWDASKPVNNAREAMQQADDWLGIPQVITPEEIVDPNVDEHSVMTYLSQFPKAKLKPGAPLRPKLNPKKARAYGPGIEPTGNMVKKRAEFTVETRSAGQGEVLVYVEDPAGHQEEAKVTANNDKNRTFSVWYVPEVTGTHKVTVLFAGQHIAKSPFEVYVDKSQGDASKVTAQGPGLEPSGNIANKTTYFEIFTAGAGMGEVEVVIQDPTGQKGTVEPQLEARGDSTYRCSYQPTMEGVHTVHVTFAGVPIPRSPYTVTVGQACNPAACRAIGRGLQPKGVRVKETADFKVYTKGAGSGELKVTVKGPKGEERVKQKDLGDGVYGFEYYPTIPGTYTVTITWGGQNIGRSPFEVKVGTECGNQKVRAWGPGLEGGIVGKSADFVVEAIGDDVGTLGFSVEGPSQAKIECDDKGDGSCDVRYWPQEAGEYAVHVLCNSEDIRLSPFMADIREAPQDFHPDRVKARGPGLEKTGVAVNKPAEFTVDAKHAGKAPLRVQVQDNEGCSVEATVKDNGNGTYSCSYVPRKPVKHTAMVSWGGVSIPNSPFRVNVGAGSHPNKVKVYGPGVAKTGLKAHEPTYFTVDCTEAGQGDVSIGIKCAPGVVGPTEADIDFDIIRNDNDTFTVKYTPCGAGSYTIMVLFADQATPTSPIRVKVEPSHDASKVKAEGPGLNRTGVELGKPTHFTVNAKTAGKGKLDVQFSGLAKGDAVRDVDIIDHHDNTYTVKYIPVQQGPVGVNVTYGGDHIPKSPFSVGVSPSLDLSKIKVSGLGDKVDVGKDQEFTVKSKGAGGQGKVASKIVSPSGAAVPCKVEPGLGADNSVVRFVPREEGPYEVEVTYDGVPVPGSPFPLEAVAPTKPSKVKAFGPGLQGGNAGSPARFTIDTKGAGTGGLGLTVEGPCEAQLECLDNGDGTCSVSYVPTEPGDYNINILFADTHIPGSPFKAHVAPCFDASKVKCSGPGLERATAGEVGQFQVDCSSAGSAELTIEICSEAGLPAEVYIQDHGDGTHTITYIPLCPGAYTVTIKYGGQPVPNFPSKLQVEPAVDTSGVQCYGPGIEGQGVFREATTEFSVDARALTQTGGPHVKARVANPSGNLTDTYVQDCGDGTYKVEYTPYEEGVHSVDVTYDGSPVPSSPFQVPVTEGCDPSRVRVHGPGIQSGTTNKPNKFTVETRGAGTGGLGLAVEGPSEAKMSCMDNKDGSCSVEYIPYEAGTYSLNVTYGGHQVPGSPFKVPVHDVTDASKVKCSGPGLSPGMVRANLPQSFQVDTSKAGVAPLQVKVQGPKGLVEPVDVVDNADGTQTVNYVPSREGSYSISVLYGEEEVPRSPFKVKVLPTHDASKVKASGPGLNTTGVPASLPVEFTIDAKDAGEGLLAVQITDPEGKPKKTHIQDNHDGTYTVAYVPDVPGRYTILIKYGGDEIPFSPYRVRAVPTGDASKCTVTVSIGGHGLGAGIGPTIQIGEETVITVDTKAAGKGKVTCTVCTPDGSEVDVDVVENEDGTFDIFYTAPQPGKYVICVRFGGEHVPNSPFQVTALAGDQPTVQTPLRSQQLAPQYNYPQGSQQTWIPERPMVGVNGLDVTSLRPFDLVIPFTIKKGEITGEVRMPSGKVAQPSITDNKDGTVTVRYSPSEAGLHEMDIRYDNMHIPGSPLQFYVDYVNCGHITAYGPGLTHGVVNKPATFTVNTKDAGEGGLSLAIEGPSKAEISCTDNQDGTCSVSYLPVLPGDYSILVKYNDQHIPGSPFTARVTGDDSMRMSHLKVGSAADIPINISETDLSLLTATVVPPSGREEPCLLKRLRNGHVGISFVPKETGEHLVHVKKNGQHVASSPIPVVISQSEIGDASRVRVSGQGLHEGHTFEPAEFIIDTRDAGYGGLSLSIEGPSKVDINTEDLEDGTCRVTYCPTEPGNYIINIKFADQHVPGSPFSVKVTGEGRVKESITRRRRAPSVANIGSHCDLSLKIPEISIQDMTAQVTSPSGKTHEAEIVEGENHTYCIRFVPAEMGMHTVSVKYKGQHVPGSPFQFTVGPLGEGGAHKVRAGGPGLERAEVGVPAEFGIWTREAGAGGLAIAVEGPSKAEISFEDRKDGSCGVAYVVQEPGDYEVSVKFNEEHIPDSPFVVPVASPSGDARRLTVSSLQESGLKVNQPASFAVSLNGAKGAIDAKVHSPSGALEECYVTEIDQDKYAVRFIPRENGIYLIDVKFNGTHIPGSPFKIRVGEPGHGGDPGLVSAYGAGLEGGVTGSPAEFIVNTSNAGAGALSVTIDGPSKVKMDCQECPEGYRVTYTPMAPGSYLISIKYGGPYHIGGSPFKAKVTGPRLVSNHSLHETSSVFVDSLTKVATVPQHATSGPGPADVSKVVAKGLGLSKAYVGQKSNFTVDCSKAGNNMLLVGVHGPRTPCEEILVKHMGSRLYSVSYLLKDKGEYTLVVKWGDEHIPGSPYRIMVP
UniProt Q80X90: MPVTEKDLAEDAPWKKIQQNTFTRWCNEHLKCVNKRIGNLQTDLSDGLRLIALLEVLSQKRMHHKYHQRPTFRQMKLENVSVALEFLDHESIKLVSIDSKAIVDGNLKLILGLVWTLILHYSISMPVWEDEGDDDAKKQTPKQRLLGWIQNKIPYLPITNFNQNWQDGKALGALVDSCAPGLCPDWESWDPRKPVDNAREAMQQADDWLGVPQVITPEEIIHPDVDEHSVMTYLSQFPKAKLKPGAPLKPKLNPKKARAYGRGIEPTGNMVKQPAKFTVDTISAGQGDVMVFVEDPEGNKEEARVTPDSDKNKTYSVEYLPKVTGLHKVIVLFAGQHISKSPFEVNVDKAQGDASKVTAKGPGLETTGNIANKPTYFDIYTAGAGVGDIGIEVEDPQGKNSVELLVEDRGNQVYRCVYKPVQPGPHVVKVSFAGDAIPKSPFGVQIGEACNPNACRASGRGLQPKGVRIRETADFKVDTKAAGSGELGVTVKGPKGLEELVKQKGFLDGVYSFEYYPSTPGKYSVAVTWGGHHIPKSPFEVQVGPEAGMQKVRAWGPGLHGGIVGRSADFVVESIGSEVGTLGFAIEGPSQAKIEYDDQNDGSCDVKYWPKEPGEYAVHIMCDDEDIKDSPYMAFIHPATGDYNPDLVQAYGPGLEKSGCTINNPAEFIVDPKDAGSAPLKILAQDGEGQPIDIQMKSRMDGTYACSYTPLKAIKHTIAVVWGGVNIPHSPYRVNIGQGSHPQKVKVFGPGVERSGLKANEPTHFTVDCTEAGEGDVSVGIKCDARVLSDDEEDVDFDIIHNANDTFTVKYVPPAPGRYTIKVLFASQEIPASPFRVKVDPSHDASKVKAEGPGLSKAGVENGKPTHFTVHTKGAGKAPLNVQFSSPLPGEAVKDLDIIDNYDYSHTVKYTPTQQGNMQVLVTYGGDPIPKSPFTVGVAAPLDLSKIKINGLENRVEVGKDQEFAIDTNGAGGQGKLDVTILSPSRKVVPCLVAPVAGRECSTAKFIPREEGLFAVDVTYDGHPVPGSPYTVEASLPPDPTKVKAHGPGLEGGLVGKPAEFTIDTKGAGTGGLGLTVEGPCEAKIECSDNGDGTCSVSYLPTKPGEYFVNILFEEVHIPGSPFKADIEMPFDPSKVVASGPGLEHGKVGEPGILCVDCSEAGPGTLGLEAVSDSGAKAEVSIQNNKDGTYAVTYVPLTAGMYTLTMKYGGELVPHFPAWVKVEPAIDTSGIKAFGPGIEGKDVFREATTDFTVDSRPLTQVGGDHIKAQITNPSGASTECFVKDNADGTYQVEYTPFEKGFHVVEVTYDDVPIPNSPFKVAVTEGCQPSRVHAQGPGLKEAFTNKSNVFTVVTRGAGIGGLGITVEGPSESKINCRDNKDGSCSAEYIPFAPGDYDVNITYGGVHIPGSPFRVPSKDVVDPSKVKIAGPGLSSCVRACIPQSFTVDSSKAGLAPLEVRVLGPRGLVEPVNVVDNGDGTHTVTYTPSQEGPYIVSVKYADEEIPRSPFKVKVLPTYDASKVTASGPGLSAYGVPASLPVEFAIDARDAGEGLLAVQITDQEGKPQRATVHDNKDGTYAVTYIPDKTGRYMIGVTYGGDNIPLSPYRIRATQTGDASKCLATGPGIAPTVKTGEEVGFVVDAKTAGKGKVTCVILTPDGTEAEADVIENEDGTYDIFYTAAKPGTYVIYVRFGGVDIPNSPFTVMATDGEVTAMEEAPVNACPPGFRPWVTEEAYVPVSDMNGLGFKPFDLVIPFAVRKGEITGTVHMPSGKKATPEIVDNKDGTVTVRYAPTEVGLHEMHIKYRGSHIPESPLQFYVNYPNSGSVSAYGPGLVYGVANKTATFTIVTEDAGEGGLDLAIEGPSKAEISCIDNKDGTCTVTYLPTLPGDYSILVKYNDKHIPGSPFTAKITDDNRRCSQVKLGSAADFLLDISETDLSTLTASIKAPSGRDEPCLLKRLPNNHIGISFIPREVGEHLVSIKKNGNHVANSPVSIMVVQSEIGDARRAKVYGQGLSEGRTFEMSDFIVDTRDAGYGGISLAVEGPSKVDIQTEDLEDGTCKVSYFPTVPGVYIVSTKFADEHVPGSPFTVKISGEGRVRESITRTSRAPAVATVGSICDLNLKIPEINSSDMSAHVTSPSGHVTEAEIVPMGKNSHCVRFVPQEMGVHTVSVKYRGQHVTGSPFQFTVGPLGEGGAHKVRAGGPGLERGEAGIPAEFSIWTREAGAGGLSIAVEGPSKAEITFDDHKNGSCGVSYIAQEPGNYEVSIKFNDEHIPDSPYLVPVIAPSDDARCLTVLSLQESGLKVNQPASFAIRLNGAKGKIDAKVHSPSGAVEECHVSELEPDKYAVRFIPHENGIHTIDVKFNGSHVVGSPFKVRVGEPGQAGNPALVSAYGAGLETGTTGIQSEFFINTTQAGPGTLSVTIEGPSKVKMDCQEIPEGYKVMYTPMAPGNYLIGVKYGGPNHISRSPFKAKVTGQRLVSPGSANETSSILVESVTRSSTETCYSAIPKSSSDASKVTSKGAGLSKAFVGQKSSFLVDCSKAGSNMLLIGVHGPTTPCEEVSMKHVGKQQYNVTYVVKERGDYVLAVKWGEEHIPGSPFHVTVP

Results are given in words; binding and its absence hold for the method and conditions named. Binding seen in cells or lysates may run through a third protein. Binding can be weak; no strength is given.

The target in experiment [1] is HA-tagged C-terminus of filamin A (mouse) (UniProt Q8BTM8). Nature of the experiment: pull-down; HA-tagged filamin C-termini from tsA-201 lysate (300 mM NaCl, 50 mM Tris pH 7.5, 0.1% Triton X-100) held on sepharose G beads with anti-HA antibody, washed, incubated with 1 ml of GST-Cav1.4^wt or GST-Cav1.4^nob2 cell lysate overnight at 4 °C, washed; blot probed with anti-GST antibody; n = 3; only the target purified.

Experiment [2] deals with HA-tagged C-terminus of filamin B (mouse) (UniProt Q80X90). The experiment is described as above.

In the case of “GST-Cav1.4^wt N-terminus (from UniProt Q9JIS7) (domain or fragment)”, the binding entry in experiment [1] and in experiment [2] was “binds” throughout.
